Positions count from the first letter of the chain named. These are yes or no findings as the source states them, for the method shown. For some assays here: Binding seen in cells or lysates may run through a third protein. Some entries that bind do so weakly or less than the wild type. Sequences can lack the tags named with a protein. Blank lines part the entries; values can stand above or below the molecule they belong to.
What was measured:
[1] = target: T1, Purified Flag-tagged UGT2B17 (UniProt O75795); experiment: pull-down; protein pulldown assays of UGT2B17 or UGTm with PDIA3 and PDIA1, called direct (Supplemental Figure 6, D and E); both purified
T1 sequence: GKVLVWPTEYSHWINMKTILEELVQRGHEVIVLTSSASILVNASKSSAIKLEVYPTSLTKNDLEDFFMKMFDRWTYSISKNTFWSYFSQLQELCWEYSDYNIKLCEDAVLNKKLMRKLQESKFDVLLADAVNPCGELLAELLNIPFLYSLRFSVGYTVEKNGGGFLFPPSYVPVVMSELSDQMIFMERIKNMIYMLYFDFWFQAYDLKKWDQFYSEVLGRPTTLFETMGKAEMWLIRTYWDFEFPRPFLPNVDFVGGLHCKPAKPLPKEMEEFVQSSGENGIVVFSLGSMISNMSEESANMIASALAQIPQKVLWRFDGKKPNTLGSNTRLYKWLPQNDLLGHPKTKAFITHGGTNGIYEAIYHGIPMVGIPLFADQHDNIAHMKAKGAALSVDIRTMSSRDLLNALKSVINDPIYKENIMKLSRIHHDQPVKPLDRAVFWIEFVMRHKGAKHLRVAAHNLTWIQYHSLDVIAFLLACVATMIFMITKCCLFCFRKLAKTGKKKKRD

Chains of the proteins cited; added tags and fusions are not shown. Residues count along the entry.
UniProt P30101, residues 25-505: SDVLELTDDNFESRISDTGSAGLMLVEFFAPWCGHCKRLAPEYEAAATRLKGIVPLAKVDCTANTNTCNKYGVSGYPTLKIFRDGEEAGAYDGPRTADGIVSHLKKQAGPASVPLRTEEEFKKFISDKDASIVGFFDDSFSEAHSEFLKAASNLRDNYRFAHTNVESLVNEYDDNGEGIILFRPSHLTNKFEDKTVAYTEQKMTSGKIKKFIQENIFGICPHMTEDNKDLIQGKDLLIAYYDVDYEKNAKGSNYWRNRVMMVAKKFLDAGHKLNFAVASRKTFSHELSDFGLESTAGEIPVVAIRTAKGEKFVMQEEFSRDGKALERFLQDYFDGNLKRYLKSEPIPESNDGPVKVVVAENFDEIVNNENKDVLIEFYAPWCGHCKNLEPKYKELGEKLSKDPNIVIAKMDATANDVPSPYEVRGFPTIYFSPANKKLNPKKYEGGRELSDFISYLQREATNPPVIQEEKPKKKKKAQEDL
UniProt P11021, residues 19-654: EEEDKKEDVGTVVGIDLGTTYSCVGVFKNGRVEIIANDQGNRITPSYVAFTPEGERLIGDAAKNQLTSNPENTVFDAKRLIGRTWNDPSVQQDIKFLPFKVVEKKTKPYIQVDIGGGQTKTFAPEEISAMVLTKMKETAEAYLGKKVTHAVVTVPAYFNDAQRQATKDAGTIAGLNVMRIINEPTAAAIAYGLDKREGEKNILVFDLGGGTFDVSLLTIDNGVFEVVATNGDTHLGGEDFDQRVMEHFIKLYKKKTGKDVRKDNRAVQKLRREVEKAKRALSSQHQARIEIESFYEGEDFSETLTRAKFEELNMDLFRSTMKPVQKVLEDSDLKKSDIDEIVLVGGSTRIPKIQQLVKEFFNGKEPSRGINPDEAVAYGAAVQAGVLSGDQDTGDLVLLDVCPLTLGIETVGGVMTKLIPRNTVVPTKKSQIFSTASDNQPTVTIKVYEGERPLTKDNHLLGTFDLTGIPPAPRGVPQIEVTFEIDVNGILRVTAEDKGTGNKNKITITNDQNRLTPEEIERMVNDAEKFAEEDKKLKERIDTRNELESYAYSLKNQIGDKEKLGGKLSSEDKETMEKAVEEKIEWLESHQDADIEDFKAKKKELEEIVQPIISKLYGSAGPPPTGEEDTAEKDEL
UniProt P07237, residues 18-508: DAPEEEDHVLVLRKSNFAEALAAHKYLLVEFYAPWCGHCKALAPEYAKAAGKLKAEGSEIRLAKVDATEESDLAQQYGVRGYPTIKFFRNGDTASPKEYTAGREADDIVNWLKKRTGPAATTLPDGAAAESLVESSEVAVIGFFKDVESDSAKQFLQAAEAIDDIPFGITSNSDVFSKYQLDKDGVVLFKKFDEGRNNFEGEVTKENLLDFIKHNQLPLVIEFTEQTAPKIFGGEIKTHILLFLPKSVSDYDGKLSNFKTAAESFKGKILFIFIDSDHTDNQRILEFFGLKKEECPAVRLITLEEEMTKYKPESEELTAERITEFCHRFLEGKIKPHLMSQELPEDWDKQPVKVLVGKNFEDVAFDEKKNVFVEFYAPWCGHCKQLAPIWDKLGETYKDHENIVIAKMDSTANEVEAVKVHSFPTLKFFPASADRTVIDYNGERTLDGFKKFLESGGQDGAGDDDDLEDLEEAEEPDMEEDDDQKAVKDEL

[2] = target: T2, Purified Flag-tagged UGTm (UGT2B17 S121Y, N124S, I125N) (UniProt O75795); experiment: as above
T2 sequence: T1 sequence with S98Y, N101S, I102N

[3] = target: T3, Flag-tagged UGT2B17 (UDP glucuronosyltransferase family 2 member B17), full length, expressed in prostate cancer cells (UniProt O75795); experiment: co-IP; Figure 2C: Flag-tagged UGT2B17 or UGTm with proteins identified by MS; NETN buffer (1% NP-40, 1 mM EDTA, 50 mM Tris, 150 mM NaCl); immunoblot
T3 sequence: T1 sequence

[4] = target: T4, Flag-tagged UGT2B17 mutant UGTm (S121Y, N124S, I125N), expressed in cells (UniProt O75795); experiment: as above
T4 sequence: T1 sequence with S98Y, N101S, I102N

[5] = target: T3, Flag-tagged UGT2B17 (UDP glucuronosyltransferase family 2 member B17), full length, expressed in prostate cancer cells; experiment: co-IP; Figure 5G: LN95(KO) cells transfected with control, UGT2B17 or UGTm; co-IP of Flag-tag UGT2B17 and UGTm with PTPN1 and Src, immunoblot
[6] = target: T4, Flag-tagged UGT2B17 mutant UGTm (S121Y, N124S, I125N), expressed in cells; experiment: as above

Molecule: PDIA3 of the protein pulldown assay (from UniProt P30101 25-505)
- binding [1]: binds
- binding [2]: binds

Molecule: BiP (from UniProt P11021 19-654)
- binding [3]: binds
- binding [4]: binds

B1: ERP44 (protein, UniProt Q9BS26 30-406)
chain: EITSLDTENIDEILNNADVALVNFYADWCRFSQMLHPIFEEASDVIKEEFPNENQVVFARVDCDQHSDIAQRYRISKYPTLKLFRNGMMMKREYRGQRSVKALADYIRQQKSDPIQEIRDLAEITTLDRSKRNIIGYFEQKDSDNYRVFERVANILHDDCAFLSAFGDVSKPERYSGDNIIYKPPGHSAPDMVYLGAMTNFDVTYNWIQDKCVPLVREITFENGEELTEEGLPFLILFHMKEDTESLEIFQNEVARQLISEKGTINFLHADCDKFRHPLLHIQKTPADCPVIAIDSFRHMYVFGDFKDVLIPGKLKQFVFDLHSGKLHREFHHGPDPTDTAPGEQAQDVASSPPESSFQKLAPSEYRYTLLRDRDEL
- binding [3]: binds
- binding [4]: binds

B3: PTPN1, endogenous (enzyme, UniProt P18031 1-435)
chain: MEMEKEFEQIDKSGSWAAIYQDIRHEASDFPCRVAKLPKNKNRNRYRDVSPFDHSRIKLHQEDNDYINASLIKMEEAQRSYILTQGPLPNTCGHFWEMVWEQKSRGVVMLNRVMEKGSLKCAQYWPQKEEKEMIFEDTNLKLTLISEDIKSYYTVRQLELENLTTQETREILHFHYTTWPDFGVPESPASFLNFLFKVRESGSLSPEHGPVVVHCSAGIGRSGTFCLADTCLLLMDKRKDPSSVDIKKVLLEMRKFRMGLIQTADQLRFSYLAVIEGAKFIMGDSSVQDQWKELSHEDLEPPPEHIPPPPRPPKRILEPHNGKCREFFPNHQWVKEETQEDKDCPIKEEKGSPLNAAPYGIESMSQDTEVRSRVVGGSLRGAQAASPAKGEPSLPEKDEDHALSYWKPFLVNMCVATVLTAGAYLCYRFLFNSNT
- binding [5]: binds
- binding [6]: binds

Other lines, results leading:

- binding [1]: binds
- binding [2]: binds
Molecule: PDIA1 of the protein pulldown assay and the in vitro PDI activity assay (from UniProt P07237 18-508) (enzyme)

- binding [3]: binds
- binding [4]: binds
Molecule: PDIA3 (also known as ERP57), endogenous (from UniProt P30101 25-505)

- binding [3]: binds
- binding [4]: binds
B2: GANAB (protein, UniProt Q14697 29-944)
chain: ITLAVDRSNFKTCEESSFCKRQRSIRPGLSPYRALLDSLQLGPDSLTVHLIHEVTKVLLVLELQGLQKNMTRFRIDELEPRRPRYRVPDVLVADPPIARLSVSGRDENSVELTMAEGPYKIILTARPFRLDLLEDRSLLLSVNARGLLEFEHQRAPRVSQGSKDPAEGDGAQPEETPRDGDKPEETQGKAEKDEPGAWEETFKTHSDSKPYGPMSVGLDFSLPGMEHVYGIPEHADNLRLKVTEGGEPYRLYNLDVFQYELYNPMALYGSVPVLLAHNPHRDLGIFWLNAAETWVDISSNTAGKTLFGKMMDYLQGSGETPQTDVRWMSETGIIDVFLLLGPSISDVFRQYASLTGTQALPPLFSLGYHQSRWNYRDEADVLEVDQGFDDHNLPCDVIWLDIEHADGKRYFTWDPSRFPQPRTMLERLASKRRKLVAIVDPHIKVDSGYRVHEELRNLGLYVKTRDGSDYEGWCWPGSAGYPDFTNPTMRAWWANMFSYDNYEGSAPNLFVWNDMNEPSVFNGPEVTMLKDAQHYGGWEHRDVHNIYGLYVHMATADGLRQRSGGMERPFVLARAFFAGSQRFGAVWTGDNTAEWDHLKISIPMCLSLGLVGLSFCGADVGGFFKNPEPELLVRWYQMGAYQPFFRAHAHLDTGRREPWLLPSQHNDIIRDALGQRYSLLPFWYTLLYQAHREGIPVMRPLWVQYPQDVTTFNIDDQYLLGDALLVHPVSDSGAHGVQVYLPGQGEVWYDIQSYQKHHGPQTLYLPVTLSSIPVFQRGGTIVPRWMRVRRSSECMKDDPITLFVALSPQGTAQGELFLDDGHTFNYQTRQEFLLRRFSFSGNTLVSSSADPEGHFETPIWIERVVIIGAGKPAAVVLQTKGSPESRLSFQHDPETSVLVLRKPGINVASDWSIHLR

— article PMC12807465
